Laboratory results: paper PMC7862700
Only a part is listed here, and it is no random draw. At the low end of the ranking the order means little.

By UniProt entry, the sequences of proteins in these tests, tags left out. Where a name states a change or a piece, a line headed by the entry shows the natural chain unless it says otherwise.
UniProt O43186: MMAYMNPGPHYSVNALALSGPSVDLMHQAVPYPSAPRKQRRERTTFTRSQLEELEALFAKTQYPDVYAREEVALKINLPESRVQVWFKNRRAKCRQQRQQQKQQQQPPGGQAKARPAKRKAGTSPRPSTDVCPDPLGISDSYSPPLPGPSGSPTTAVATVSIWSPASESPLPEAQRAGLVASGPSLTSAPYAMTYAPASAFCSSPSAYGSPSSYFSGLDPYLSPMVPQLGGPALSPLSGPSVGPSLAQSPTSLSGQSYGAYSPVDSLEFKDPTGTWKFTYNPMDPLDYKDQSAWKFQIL

These sequences were tested against CRX (UniProt O43186) (assay: DAPPL (digital affinity profiling via proximity ligation, sequencing)). Conditions: 10 mM Tris-HCl pH 7.5, 50 mM NaCl, 1 mM DTT, 4% glycerol, room temperature, 30 min; GST-TFs on glutathione beads, 16-mer random dsDNA library, 0.1% …; high values mean tight binding; double strand, one strand shown; scale: fold enrichment (6-mer frequency, TF over GST control).

Row | Sequence | binding signal
1 | CCCCGT | 0.961
2 | GCTATG | 0.944
3 | AACATT | 1.34
4 | ATTCTT | 1.77
5 | ACACTG | 0.849
6 | GTTCAA | 0.949
7 | TTACGT | 1.74
8 | GAAGTG | 0.638
9 | GAAACA | 0.836
10 | TGCATC | 0.947
11 | CATGCA | 0.795
12 | ACTTGC | 1.12
13 | CCGGAC | 0.76
14 | CATCAC | 0.86
15 | GCTGCC | 0.843
16 | ATCCTC | 2.46
17 | AATTAT | 2.05
18 | TTTTTG | 1.31
19 | GCTACA | 0.952
20 | AGTATT | 1.57

A different layout for some results above.

| Row | Sequence | binding signal |
| --- | --- | --- |
| 1 | CCCCGT | 0.961 |
| 5 | ACACTG | 0.849 |
| 8 | GAAGTG | 0.638 |
| 9 | GAAACA | 0.836 |
| 10 | TGCATC | 0.947 |
| 13 | CCGGAC | 0.76 |
| 19 | GCTACA | 0.952 |
| 20 | AGTATT | 1.57 |

(list continues)

Row | Sequence | binding signal
21 | CACCCG | 0.832
22 | CTAGAT | 1.83
23 | GTAGCA | 0.795
24 | AGTACT | 1.02
25 | ACTAAT | 2.71
26 | ACCCGG | 0.755
27 | GGGCTC | 0.974
28 | CCGAGC | 1.01
29 | AACCCG | 1.2
30 | ATATAT | 1.46
31 | GGGTTC | 0.803
32 | TAACGG | 1.21
33 | AAACGA | 0.953
34 | CTACGG | 1.08
35 | ACAACA | 0.974
36 | TCTGAC | 0.997
37 | TATAGC | 1.44
38 | CCCCTA | 1.15
39 | TAATCG | 2.89
